In assay [1] the target is T1, high mobility group nucleosome binding domain 1 (human (endogenous in RL95-2)) (UniProt P05114).
T1 sequence: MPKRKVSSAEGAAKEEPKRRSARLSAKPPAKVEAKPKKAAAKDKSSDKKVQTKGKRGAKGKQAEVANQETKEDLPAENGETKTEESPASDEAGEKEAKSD
In words: co-IP; nuclear and cytoplasmic fractions of serum-starved RL95-2 cells treated with 500 ng/ml GH for 0 and 5 min; precipitated with the combination of anti-GHR antibodies (ab89400 and sc-137185) or with an HMGN1 antibody; blotted for HMGN1 or GHR.

Protein sequences, listed by entry. Tags and fused reporters are not part of them. Residues count along the entry.
UniProt P10912, residues 19-638: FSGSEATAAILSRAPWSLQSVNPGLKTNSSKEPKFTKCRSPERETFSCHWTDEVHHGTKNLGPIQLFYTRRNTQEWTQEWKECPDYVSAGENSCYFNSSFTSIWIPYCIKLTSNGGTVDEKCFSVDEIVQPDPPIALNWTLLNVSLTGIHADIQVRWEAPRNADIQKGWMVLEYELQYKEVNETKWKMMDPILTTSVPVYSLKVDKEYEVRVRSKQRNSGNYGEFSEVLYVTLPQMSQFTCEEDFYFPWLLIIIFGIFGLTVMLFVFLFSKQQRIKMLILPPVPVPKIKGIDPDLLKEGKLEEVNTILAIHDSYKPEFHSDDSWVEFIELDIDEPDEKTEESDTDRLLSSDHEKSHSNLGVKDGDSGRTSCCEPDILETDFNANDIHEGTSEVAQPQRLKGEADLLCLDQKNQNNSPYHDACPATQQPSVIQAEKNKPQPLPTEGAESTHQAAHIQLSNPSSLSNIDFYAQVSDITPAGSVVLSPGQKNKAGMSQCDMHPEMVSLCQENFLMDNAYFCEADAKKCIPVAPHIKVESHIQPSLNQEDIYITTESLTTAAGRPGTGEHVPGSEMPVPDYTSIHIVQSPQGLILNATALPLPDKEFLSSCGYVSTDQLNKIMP

For assay [2], the target named is growth hormone receptor (human (endogenous in RL95-2)) (UniProt P10912). The description is as above.

Results are given in words; binding and its absence hold for the method and conditions named. In cells and extracts the contact can be indirect. Some binding calls cover weakened binding; strength is not graded here.

“growth hormone receptor (from UniProt P10912 19-638)”: in assay [1], the binding entry was “binds”.

B1: high mobility group nucleosome binding domain 1 (protein, UniProt P05114 1-100)
chain: MPKRKVSSAEGAAKEEPKRRSARLSAKPPAKVEAKPKKAAAKDKSSDKKVQTKGKRGAKGKQAEVANQETKEDLPAENGETKTEESPASDEAGEKEAKSD
As for B1, the binding entry in assay [2] was “binds”.

The values above are taken from article PMC10409943.
